Values from PubChem BioAssay AID1259254 (NCATS, 2017).
In all, the deposit lists about 59,000 reagents; this is an unselected part. About 1,550 of all reagents (2.6%) count as active. 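G2 share is only a proxy for re-replication; each gene was hit by three separate siRNAs, and active genes were retested.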 Entries without a mark were called inactive. Further read-outs or replicates are left out here. Not given: the amount of reagent.

Test: 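Genome-wide screen for genes that prevent DNA re-replication in cancer cells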 (primary screen)
Cells: human HCT116 colorectal cancer cells
Reagent: single siRNA against human genes
Time to read-out: 3 days
Measurement: 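Imaged Hoechst DNA stain sorts each cell into a cycle phase by DNA amount; per plate, G2 fraction set to 0% for non-targeting and 100% for GMNN siRNA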
Reading the numbers: G2 robust z-score: higher = more G2 cells, more excess DNA replication
Hit rule: 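An siRNA counts as active if its G2 robust z-score lies at least 5 MADs above the screen median; here such calls match roughly 38% of GMNN control or more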

| target gene | PubChem SID | G2 robust z-score |
| --- | --- | --- |
| CEP70 (centrosomal protein 70) | SID160750382 | 0.129 |
| CEP70 (centrosomal protein 70) | SID160750383 | 0.721 |
| CEP70 (centrosomal protein 70) | SID160750384 | 0.167 |
| USP44 (ubiquitin specific peptidase 44) | SID160751720 | 0.303 |
| USP44 (ubiquitin specific peptidase 44) | SID160751721 | -1.52 |
| USP44 (ubiquitin specific peptidase 44) | SID160751722 | 0.268 |
| OBI1 (ORC ubiquitin ligase 1) | SID160748964 | 0.299 |
| OBI1 (ORC ubiquitin ligase 1) | SID160748965 | -0.87 |
| OBI1 (ORC ubiquitin ligase 1) | SID160748966 | -0.136 |
| ZC3HC1 (zinc finger C3HC-type containing 1) | SID160740949 | -0.875 |
| ZC3HC1 (zinc finger C3HC-type containing 1) | SID160740950 | -1.01 |
| ZC3HC1 (zinc finger C3HC-type containing 1) | SID160740951 | 0.311 |
| CEACAM5 (CEA cell adhesion molecule 5) | SID160741550 | 0.799 |
| CEACAM5 (CEA cell adhesion molecule 5) | SID160741561 | -0.707 |
| CEACAM5 (CEA cell adhesion molecule 5) | SID160741572 | 0.358 |
| PHLDB1 (pleckstrin homology like domain family B member 1) | SID160735661 | 4.22 |
| PHLDB1 (pleckstrin homology like domain family B member 1) | SID160735662 | 1.28 |
| PHLDB1 (pleckstrin homology like domain family B member 1) | SID160735663 | 1.41 |
| DCTD (dCMP deaminase) | SID160719920 | -1.17 |
| DCTD (dCMP deaminase) | SID160720022 | -0.881 |
| DCTD (dCMP deaminase) | SID160720124 | 0.346 |
| KLF14 (KLF transcription factor 14) | SID160757464 | 0.142 |
| KLF14 (KLF transcription factor 14) | SID160757465 | 3.75 |
| KLF14 (KLF transcription factor 14) | SID160757466 | -0.759 |
| SEMA5A (semaphorin 5A) | SID160721314 | 1.12 |
| SEMA5A (semaphorin 5A) | SID160721315 | 9.16 (active) |
| SEMA5A (semaphorin 5A) | SID160721316 | 0.225 |

8 successive records from above:
| target gene | PubChem SID | G2 robust z-score |
| --- | --- | --- |
| CEP70 (centrosomal protein 70) | SID160750384 | 0.167 |
| USP44 (ubiquitin specific peptidase 44) | SID160751720 | 0.303 |
| USP44 (ubiquitin specific peptidase 44) | SID160751721 | -1.52 |
| USP44 (ubiquitin specific peptidase 44) | SID160751722 | 0.268 |
| OBI1 (ORC ubiquitin ligase 1) | SID160748964 | 0.299 |
| OBI1 (ORC ubiquitin ligase 1) | SID160748965 | -0.87 |
| OBI1 (ORC ubiquitin ligase 1) | SID160748966 | -0.136 |
| ZC3HC1 (zinc finger C3HC-type containing 1) | SID160740949 | -0.875 |

Additional records follow.
| target gene | PubChem SID | G2 robust z-score |
| --- | --- | --- |
| FANCB (FA complementation group B) | SID160732680 | -0.514 |
| FANCB (FA complementation group B) | SID160763808 | 0.293 |
| FANCB (FA complementation group B) | SID160763818 | -0.804 |
| DENND10P1 (DENND10 pseudogene 1) | SID160724471 | 1.26 |
| DENND10P1 (DENND10 pseudogene 1) | SID160744529 | 0.0053 |
| DENND10P1 (DENND10 pseudogene 1) | SID160744530 | 1.05 |
| STYXL2 (serine/threonine/tyrosine interacting like 2) | SID160754219 | -1 |
| STYXL2 (serine/threonine/tyrosine interacting like 2) | SID160754220 | 2.34 |
| STYXL2 (serine/threonine/tyrosine interacting like 2) | SID160754221 | -0.0152 |
| MYNN (myoneurin) | SID160744594 | -0.343 |
| MYNN (myoneurin) | SID160744595 | 0.259 |
| MYNN (myoneurin) | SID160744596 | -0.219 |
| PCDHGB3 (protocadherin gamma subfamily B, 3) | SID160744765 | 1.22 |
| PCDHGB3 (protocadherin gamma subfamily B, 3) | SID160744766 | -1.46 |
| PCDHGB3 (protocadherin gamma subfamily B, 3) | SID160744767 | -0.69 |
| BROX (BRO1 domain and CAAX motif containing) | SID160758693 | -0.164 |
| BROX (BRO1 domain and CAAX motif containing) | SID160758694 | 0.55 |
| BROX (BRO1 domain and CAAX motif containing) | SID160758695 | -0.248 |
| CCDC188 (coiled-coil domain containing 188) | SID160725210 | 1.31 |
| CCDC188 (coiled-coil domain containing 188) | SID160733219 | 0.846 |
| CCDC188 (coiled-coil domain containing 188) | SID160766010 | 0.411 |
| JAKMIP1 (janus kinase and microtubule interacting protein 1) | SID160759278 | 0.359 |
| JAKMIP1 (janus kinase and microtubule interacting protein 1) | SID160759279 | 0.151 |
| JAKMIP1 (janus kinase and microtubule interacting protein 1) | SID160759280 | -0.442 |
| MMP26 (matrix metallopeptidase 26) | SID160731559 | 0.731 |
| MMP26 (matrix metallopeptidase 26) | SID160745059 | 0.571 |
| MMP26 (matrix metallopeptidase 26) | SID160745061 | 0.305 |
| DNASE1 (deoxyribonuclease 1) | SID160755247 | 1.24 |
| DNASE1 (deoxyribonuclease 1) | SID160755258 | 3.22 |
| DNASE1 (deoxyribonuclease 1) | SID160755269 | -0.117 |
| STK4 (serine/threonine kinase 4) | SID160717478 | -0.267 |
| STK4 (serine/threonine kinase 4) | SID160717479 | 1.29 |
| STK4 (serine/threonine kinase 4) | SID160717480 | -0.0256 |
| ZNF768 (zinc finger protein 768) | SID160749285 | -0.723 |
| ZNF768 (zinc finger protein 768) | SID160749286 | -0.152 |
| ZNF768 (zinc finger protein 768) | SID160749287 | 0.58 |
| HIVEP2 (HIVEP zinc finger 2) | SID160774956 | 1 |
| HIVEP2 (HIVEP zinc finger 2) | SID160774957 | -1.14 |
| HIVEP2 (HIVEP zinc finger 2) | SID160774958 | -0.479 |
| XXYLT1 (xyloside xylosyltransferase 1) | SID160759180 | -0.941 |
| XXYLT1 (xyloside xylosyltransferase 1) | SID160759181 | -0.837 |
| XXYLT1 (xyloside xylosyltransferase 1) | SID160759183 | -0.0849 |
